Out of some 410,000 compounds screened, about 310 (0.076%) were called active. The inconclusive results got no clear call from the source; some entries with a clear call stand among them for comparison. The call rests on the fitted dose curve; in most records, active means well fitted activation curve with a large enough effect; inconclusive means small, poorly fitted or top-dose-only effect, or another doubt; inactive means no such curve, though single readings can be large or run the other way. Potencies of inconclusive entries are doubtful fits and often do not repeat.
What follows are compounds tested against Parathyroid hormone/parathyroid hormone-related peptide receptor (Homo sapiens) (UniProt Q03431) (assay: qHTS for PTHR1 Agonists: Primary Screen). Details: HEK293 GP2 PTHR1 cells, GloSensor cAMP luminescence, 1 h; activation: at 115 µM (top of the series) unless noted; series mostly up to 115 µM.
From the text: The goal of the proposed studies is to discover new compounds that act as potent agonists on the parathyroid hormone receptor type-1 (PTHR1). The PTHR1 plays critical roles in maintaining blood calcium and phosphate levels, as well as in controlling bone remodeling. PTHR1 agonists could thus be useful for treating diseases such as hypoparathyroidism and osteoporosis. In the former disease, an agonist drug would help maintain normal blood calcium and phosphate levels under conditions of parathyroid hormone deficiency. In the latter disease, an agonist drug would stimulate new bone formation and thus reduce the risk of fracture, under conditions of bone fragility, as occurs in aging.
To that end, we performed a quantitative high-throughput screening (qHTS) of the Molecular Libraries Probe Centers Network (MLPCN) compound libraries at the NIH Chemical Genomics Center (NCGC) for the parathyroid hormone receptor type-1 (PTHR1) using a unique HEK-293-derived cell line (GP2) that expresses the PTHR1 and a glosensor cAMP reporter construct.
NIH Molecular Libraries Probe Production Centers Network [MLPCN]
NIH Chemical Genomics Center [NCGC]
Assay Submitter (PI): Thomas Gardella, Massachusetts General Hospital
4 microL are dispensed into a 1536-well micro plate to yield 3,000 cells/well. The plates are then incubated overnight, after which 4 microL of 0.5 mM of BIoTium Luciferin plus 0.5 mM IBMX are added. They are then incubated at 37 degree for one hour before 23 nL of compounds are added through pinning and then incubated at 37 degree again for another hour. After the plates are kept at room temperature for 15 min before they are read on the ViewLux to measure luminescence.
Further: nearly all actives have a fitted effect of over 55% in size.
Potency means the concentration at half of the fitted maximal effect.

Protein sequences, listed by entry. Tags and fused reporters are not part of them.
UniProt Q03431, whole entry, looked up: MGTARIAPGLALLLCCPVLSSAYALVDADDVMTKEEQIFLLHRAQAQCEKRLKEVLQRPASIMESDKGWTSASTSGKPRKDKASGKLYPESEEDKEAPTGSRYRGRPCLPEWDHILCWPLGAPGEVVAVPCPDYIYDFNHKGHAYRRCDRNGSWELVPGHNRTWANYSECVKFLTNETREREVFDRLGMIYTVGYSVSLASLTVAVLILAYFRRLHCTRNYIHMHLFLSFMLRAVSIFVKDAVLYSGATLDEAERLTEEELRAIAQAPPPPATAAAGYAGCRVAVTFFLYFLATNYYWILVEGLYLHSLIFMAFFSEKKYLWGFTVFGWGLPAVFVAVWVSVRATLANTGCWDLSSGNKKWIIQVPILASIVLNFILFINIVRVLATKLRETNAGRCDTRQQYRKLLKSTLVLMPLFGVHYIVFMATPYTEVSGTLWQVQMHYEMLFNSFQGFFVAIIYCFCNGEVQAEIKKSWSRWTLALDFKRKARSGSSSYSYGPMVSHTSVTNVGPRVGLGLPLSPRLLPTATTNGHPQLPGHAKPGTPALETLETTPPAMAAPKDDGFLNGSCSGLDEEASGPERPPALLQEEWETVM

Potency, inconclusive:
O=c1[nH]c(SCc2n[nH]c(=S)n2-c2ccccc2)nc2sc3c(c12)CCC3 17.8 µM [activator, partial curve, poor fit]
CCN1CCN(CCOc2ccccc2-c2ccccc2)CC1 50.1 µM [activator, partial curve, poor fit]
COc1cc(CCC(=O)N2CCN(S(=O)(=O)c3ccc(C)c(C)c3)CC2)cc(OC)c1OC 1 µM [activator, full curve, poor fit]
COc1ccc(NC(=S)N2CCC(c3nc4ccc(Cl)cc4[nH]3)CC2)c(OC)c1 5.01 µM [activator, partial curve]
CCn1c(CCCOc2ccc(Cl)cc2Cl)nnc1SCC(=O)Nc1cccc(F)c1 2.51 µM [activator, full curve, poor fit]
O=C(C1=C(O)C(=O)N(c2ncccn2)C1c1cccs1)c1ccco1 (centres undefined) 39.8 µM [activator, single point]
N#Cc1ccc(C(=O)Nc2ccccc2-c2nc3ccccc3s2)c(F)c1 3.16 µM [activator, full curve, poor fit]
CNS(=O)(=O)c1ccc(NC(=O)c2cnn3c(C(F)F)cc(-c4ccccc4)nc23)cc1 89.1 µM [activator, partial curve, poor fit]
NC(=O)CSc1nnnn1-c1cccc(O)c1 50.1 µM [activator, partial curve, poor fit]
Cc1cc(-c2cc(-c3ccccc3)on2)nc(NCC2CC2)n1 126 µM [activator, single point]
CCn1c(=O)c(=O)[nH]c2cc(C(=O)NC3CCCc4ccccc43)ccc21 (centres undefined) 11.2 µM [activator, partial curve, poor fit]
CCC1CCc2nc3sc(C(=O)Nc4cccc(C(F)(F)F)c4)c(N)c3cc2C1 (centres undefined) 44.7 µM [activator, partial curve, poor fit]
O=C(N/N=C/C=C/c1ccccc1)c1cc2c(ccc3ccccc32)o1 2 µM [activator, full curve, poor fit]
CCOc1ncccc1C(=O)Nc1cc(S(=O)(=O)N2CCCCC2)ccc1C 112 µM [activator, single point]
Cc1ccccc1C(=O)Nc1nnc([C@@H]2C[C@H](O)[C@@H](CO)O2)s1 44.7 µM [activator, partial curve]
COc1ccccc1OCC(=O)OCC(=O)NCCN1C(=O)CSC1=O 126 µM [activator, single point]
Nc1nonc1C(=O)NCCNCc1c(OCc2ccccc2F)ccc2ccccc12 63.1 µM [activator, single point]
COc1ccc(CCNC(=O)CC2SC(=NCc3ccccc3OC)NC2=O)cc1 (centres undefined) 126 µM [activator, single point]
Cc1cc(C)c[n+](CC(=O)c2ccc(C)c([N+](=O)[O-])c2)c1 20 µM [activator, single point]
Cc1cc(C)cc(C(=O)NC(CC(N)=O)c2ccc(NC3CCCCC3)c([N+](=O)[O-])c2)c1 (centres undefined) 25.1 µM [activator, single point]
O=C(CCC(=O)N1CCc2ccccc2C1)NCCc1ccc(Cl)cc1 50.1 µM [activator, partial curve, poor fit]
Cc1cc(O)c(-c2cc(C(=O)Nc3ccc(S(=O)(=O)N4CCOCC4)cc3)[nH]n2)cc1C 39.8 µM [activator, single point]
Cc1cc(=O)n2c(sc3ccccc32)c1C#N 44.7 µM [activator, single point]
Cc1ccc2nc(COc3ccccc3NC(=O)COc3ccccc3Cl)cc(=O)n2c1 141 µM [activator, single point]
COC(=O)c1ccc(C)c(NS(=O)(=O)c2ccc3c(c2)OCCO3)c1 39.8 µM [activator, single point]
O=C(NC(=S)Nc1ccc(CN2CCOCC2)cc1)c1cccc(F)c1 112 µM [activator, single point]
Nc1ncnc2c1ncn2CCOc1ccccc1 15.8 µM [activator, partial curve, poor fit]
CCc1ccc(S(=O)(=O)Nc2cc3c(cc2N2CCOCC2)n(C)c(=O)c(=O)n3C)cc1 112 µM [activator, partial curve, poor fit]
CC(NC(=O)c1ccco1)c1ccc(-n2ccnc2)cc1 (centres undefined) 141 µM [activator, single point]
CCCCn1c(N)c(N(CCOC)C(=O)CN2C(=O)NC3(CC(C)CC(C)(C)C3)C2=O)c(=O)[nH]c1=O (centres undefined) 5.62 µM [activator, full curve, poor fit]
CCc1nc2ccc(C(=O)NCCOc3ccc(OC)cc3)cn2c1N(CCC(C)C)CCN(C)C 126 µM [activator, single point]
Fc1ccc(COc2ccc(Br)cc2CNCC2CCCO2)cc1 (centres undefined) 10 µM [activator, partial curve]
CC(=O)c1cccc(NC(=O)c2ccoc2C)c1 126 µM [activator, single point]
CC1(C)C2([N+](=O)[O-])CN3CC1([N+](=O)[O-])CN(C2)C31CCCC1 39.8 µM [activator, single point]

In the list so far, three contain a thiophene ring, fused or not.
Potency, inconclusive:
O=c1[nH]c(SCc2n[nH]c(=S)n2-c2ccccc2)nc2sc3c(c12)CCC3 17.8 µM [activator, partial curve, poor fit]
O=C(C1=C(O)C(=O)N(c2ncccn2)C1c1cccs1)c1ccco1 (centres undefined) 39.8 µM [activator, single point]
CCC1CCc2nc3sc(C(=O)Nc4cccc(C(F)(F)F)c4)c(N)c3cc2C1 (centres undefined) 44.7 µM [activator, partial curve, poor fit]

Next part:

Potency, active:
CCCCCCCn1ccc(O)c(CC(=O)OC)c1=O 50.1 µM

activation, inconclusive:
CC(=O)c1ccc(NS(=O)(=O)c2cnc(N)nc2)cc1 30.5% [activator]
Cc1c(CCC(=O)O)c(=O)oc2cc3occ(-c4ccc(F)cc4)c3cc12 -23.7% [activator] [at 57.5 µM]
O=C(CSc1nnc(Cc2cccs2)n1Cc1ccco1)Nc1ccc(Cl)cc1Cl -33.7% [activator]
COCCNC(=O)c1ccc2c(=O)n(CCOC)c(SCC(=O)c3c[nH]c4ccccc34)nc2c1 33.6% [activator]
COc1cccc(NC(=O)CN(C)C(=O)CCSc2ccc(C)cc2)c1 -50% [activator]
CCOC(=O)C1=C(C)N=c2s/c(=C\c3ccc(C(=O)O)cc3)c(=O)n2C1c1ccc(F)cc1 (centres undefined) -15.8% [activator]
O=C(CN1CCS(=O)(=O)CC1)N/N=C/c1cccc(C(F)(F)F)c1 -56.3% [activator]
CCNC(=O)c1c2c(nc3ccccc13)C(=O)N(C1CCCCC1)C2 38.3% [activator]
O=C(/C=C/c1cccc([N+](=O)[O-])c1)N1CCN(Cc2ccccc2)CC1 -91.1% [activator]
CC(C(=O)Nc1ccc(C#N)cc1)N(C)CC(=O)Nc1cccc(F)c1 (centres undefined) 57.9% [activator]
O=C(NN=C1C2CC3CC(C2)CC1C3)c1ccccc1O 38.9% [activator]
CCOc1ccc2nc(NC(=O)CS(=O)(=O)c3ccc(C)cc3)sc2c1 -62.6% [activator] [at 57.5 µM]
COc1ccc(C2SCC(C(=O)O)N2C(C)=O)cc1 (centres undefined) -22.8% [activator]

activation, inactive:
CC1(C(=O)NCc2cccs2)Cc2c(-c3cccc(C(F)(F)F)c3)ccnc2O1 (centres undefined) -18.5%
O=C(/C=C/c1ccc(Br)cc1)c1ccc(NC2=NCCCS2)cc1 -92.6%
CN1CCN(C(=O)CCCN2C(=O)/C(=C/c3cccc(Br)c3)SC2=S)CC1 -7.92%
O=C(CSc1nc2ccccc2n1CCc1ccccc1)c1ccc(O)c(O)c1 -26.8%
CCN(CC)C(=O)c1cc2sc3ccccc3c2s1 -18.8% [at 57.5 µM]
COc1cccc(NC(=O)c2cnc[nH]2)c1 -29.4%
Cc1ccc(NC(=O)c2c(C)oc3ccc(O)c(CN4CCCCCC4)c23)cc1 0.642%
O=C(Cn1c(SCc2ccccc2F)nc2cccnc21)Nc1ccc(F)c(Cl)c1 -40.8%
O=C(CSc1ccc(Cl)cc1)N1N=CCC1c1ccccc1 (centres undefined) -35.9%
O=C(NCc1cccnc1)/C(=C\c1ccc(-c2ccc(Br)cc2)o1)S(=O)(=O)c1ccccc1 -55.3%
CCc1nn(CC(=O)N2CCN(c3ccc(Cl)cc3)CC2)c(=O)c2cc3occc3n12 -30.1%
CC(=O)Nc1nonc1NC(=O)CSC1=NCCS1 -5.29% [at 57.5 µM]
COc1cccc(CNC(=O)CSC2=Nc3ccccc3C3=NC(C)C(=O)N23)c1OC (centres undefined) -15.8%
CCCCS(=O)(=O)c1oc(-c2ccc(F)cc2)nc1S(=O)(=O)c1ccccc1 -36%

outcome, inactive:
Cn1c(SCc2ccccc2Cl)nc2c([nH]c3ccccc32)c1=O
N#Cc1c(-c2ccccc2)nc(SCC(=O)N2c3ccccc3Sc3ccccc32)[nH]c1=O
c1ccc(OCCNc2ccn3nc(-c4cccs4)cc3n2)cc1
O=C(COc1ccccc1[N+](=O)[O-])N1CCC(c2nc3ccccc3o2)CC1
C=C(C)C(=O)Nc1cccc(C2=NOC3(C2)C[C@@H](C(N)=O)N(C(=O)CC(c2ccccc2)c2ccccc2)C3)c1 (some centres undefined)
COc1cccc(C(O)c2nc(/C=C/c3ccccc3)cs2)c1 (centres undefined)
CCCCN1CCc2c(c3ccccc3n2Cc2ccccc2)C1

From PubChem BioAssay AID743266 (National Center for Advancing Translational Sciences (NCATS), 2014)
